The source of these data is US20160208005A1.

These are yes or no findings as the source states them, for the method shown. Some binding calls cover weakened binding; strength is not graded here.

The target of test [1] is human TSLP receptor-human Fc fusion protein (human). Briefly: ELISA using the human TSLP receptor-human Fc fusion protein. A general note: In an ELISA, binding on a coated surface is turned into a signal by an enzyme label.
In test [2] the target is monkey TSLP receptor-human Fc fusion protein (monkey (receptor part), human (Fc part)). As to the kind of experiment: ELISA using the monkey TSLP receptor-human Fc fusion protein.

B1: T7-27 (chimeric antibody) (antibody, V domains shown)
VH: EVQLLESGGGLVQPGGSLRLSCAASGFTFRSSAMHWVRQAPGKGLKWVSSVSGSGAGTYYADSVKGRFTISRDNPKNTLYLQMNSLRAEDTAVYYCVKEGGSRGFDYWGQGTLVTVSS
VL: DIQMTQSPSSLSASVGDRVTITCRASQDISNYLAWFQQKPGKAPKSLIYTASSLQSGVPSKFSGSGSGTDFTLTISSLQPEDFATYYCQQYNLYPPTFGQGTKVEIKR
Turning to B1, the binding entry in test [1] and in test [2] was “binds” throughout.
